# Measurements reported in PubChem BioAssay AID1508588 (Peter MacCallum Cancer Centre, 2020).
# Purpose: 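Genome-wide search for knock-downs that heighten vemurafenib action in melanoma cells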 (primary screen)
# Cell system: human WM266.4 melanoma cells (BRAF V600 mutant)
# Reagent: siRNA pool against human genes, 40 nM
# Time to read-out: 96 h from transfection to read-out
# Challenge: vemurafenib 300 nM (about IC25), added 48 h after transfection, for 48 h; comparison arm got DMSO vehicle only
# Detection: 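Ratios to non-targeting siRNA for cell gain, counted as DAPI nuclei after minus before drug and averaged over two replicates, and for absorbance-read medium lactate per cell; both binned into fold-change classes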
# Direction: cell gain with vemurafenib: higher = more cell gain than with non-targeting siRNA; lactate per cell with vemurafenib: higher = more lactate made per cell
# Call rule: 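a knock-down counts as enhancing when its fold-change classes with vehicle and with vemurafenib, taken together, show a stronger drug effect on cell gain or lactate per cell; exact class pairs not stated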
# Meaning of the calls: active = enhances vemurafenib effect; inactive = no enhancement seen
# Here is a random part of about 18,000 reagents tested. 790 of all reagents (4.4%) count as active. 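Calls rest on a combination of fold-change classes in drug and vehicle arms, not all shown here.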 Entries without a mark were called inactive.
target gene,cell gain with vemurafenib,lactate per cell with vemurafenib
TMEM81,0.98,0.92
CILP,1.03,0.62
DDX31,0.21,2.17
TTI1,0.63,1.79
MACROD1,0.74,1.56
MS4A7,0.3,1.75
KAT5,0.14,1.32
ST7L,0.39 (active),0.55
RWDD2A,0.55,2.16
ZNF132,0.86,0.71
NUP205,-0.05,2.14
CEP68,-0.1,1.96
CCL15,0.95,0.82
TEKT1,0.8,1.07
VN1R5,0.82,0.6
OR51S1,0.82,1
SLC25A30,0.72,0.64
MYO7A,0.73,1.15
ASPH,0.31,2.04
TRIM65,1.37,0.58
AXDND1,1.03,0.64
KIF20B,0.18,1.2
SPNS1,0.41,1.36
PABPC5,0.43,0.06
TULP4,0.49,0.76
GJA8,0.47,0.28
TSPAN32,0.32,0.56
CLVS2,0.61,0.34
CFAP58,0.87,0.65
ATP7B,0.81,0.76

Copied from the listing for reference:
target gene,cell gain with vemurafenib,lactate per cell with vemurafenib
KAT5,0.14,1.32
ST7L,0.39 (active),0.55
RWDD2A,0.55,2.16
ZNF132,0.86,0.71
NUP205,-0.05,2.14
CEP68,-0.1,1.96
CCL15,0.95,0.82
TEKT1,0.8,1.07

The results go on.
target gene,cell gain with vemurafenib,lactate per cell with vemurafenib
KLC4,0.49,0.64
SS18L1,0.81,0.89
TRARG1,0.76,0.52
L3MBTL4,0.87,0.45
NOLC1,0.01,2.14
PIGN,0.83,0.76
C1orf50,0.06,2
LRRC20,0.46,2.2
PDZD11,0.05,0.94
LYLDT1,0.46,1
GMEB2,0.37,1.35
AMER3,0.52,1.34
GGN,0.63,1.17
KCTD11,0.27,2.39
GABPA,0.61,0.92
TAS2R1,0.53,1.19
SLC35D4,0.33,1.73
ZG16,0.6,0.89
RBCK1,1.25,0.75
GEMIN2,0.44,1.04
OR4F21,0.68,0.95
TRPM1,0.81,1.38
HDAC4,0.12,1.69
SDR9C7,0.76,0.74
ZBTB7B,0.79,0.72
GFAP,0.37,1.41
WDR11,0.54,1.25
NARS1,0.54,1.03
LHFPL7,0.28,2.75
VN1R4,0.81,0.75
MROH8,0.18 (active),0.14
CNOT9,0.6,0.9
CXorf58,0.66,0.76
PABPC1,1.13,0.73
GPR87,0.31,0.8
CACNG4,0.58,1.44
RYR3,0.94,0.9
ZCCHC17,0.97,0.41
DRAM2,0.09,3.09
ZNF14,0.24,0.57
OTOA,0.51,0.92
ARHGAP25,0.44,0.76
STAG1,0.62,1.38
MYL11,0.24 (active),0.69
NAPG,0.56,0.71
IL20RB,0.81,1.41
CLDN15,0.39,0.77
FAT4,0.57,0.88
LHX8,0.68,0.45
BRPF3,0.9,1.01
LAGE3,0.71,1.16
CYFIP1,1.01,0.53
IL17D,0.32,1.29
RPL36AL,-0.03 (active),0.26
